For at least one compound, name, drawing or mass did not settle the structure.
Target: T1, CCKA receptor (Rattus norvegicus, UniProt P30551)
T1 construct: expressed in transfected cells; host or cells: Xenopus oocytes injected with in vitro transcribed RNA (clone nt 5 to 1506 in pcDNA-1)
T1 sequence (P30551 1-444): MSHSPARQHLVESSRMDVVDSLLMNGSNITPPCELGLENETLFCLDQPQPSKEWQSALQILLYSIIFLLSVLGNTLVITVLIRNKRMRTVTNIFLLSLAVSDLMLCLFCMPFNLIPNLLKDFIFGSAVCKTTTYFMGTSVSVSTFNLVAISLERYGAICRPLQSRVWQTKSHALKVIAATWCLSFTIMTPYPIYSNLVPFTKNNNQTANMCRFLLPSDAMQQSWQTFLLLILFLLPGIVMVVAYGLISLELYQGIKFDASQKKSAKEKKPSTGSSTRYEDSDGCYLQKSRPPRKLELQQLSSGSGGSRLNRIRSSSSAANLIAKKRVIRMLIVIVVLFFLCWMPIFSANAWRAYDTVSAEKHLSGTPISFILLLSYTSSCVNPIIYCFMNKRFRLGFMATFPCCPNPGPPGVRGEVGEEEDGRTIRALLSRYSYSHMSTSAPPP
Experiment: Ligand-induced chloride current in Xenopus oocytes injected with rat CCKA receptor mRNA
Format: cell-based
Conditions: oocytes voltage clamped at -70 mV, 1 and 2 days after injection; FIG. 5A: 1 μM CCK-8, 1 μM gastrin-releasing peptide, 4 μM substance P
Protocol: FIGS. 5A and 5B. Expression of the CCKA receptor in Xenopus oocytes. Ligand, induced chloride currents measured in the same oocytes one (A) and two (B) days after injection of mRNA (25 ng) in vitro transcribed from CCKA receptor cDNA cloned from rat pancreas. A. Response to agonists.
DNA was in vitro transcribed using T7 RNA polymerase from a CCK receptor clone template (5 to 1506, FIG. 1, SEQ NO:13) in pcDNA-1 (5 μg linearized with Apa 1) in the presence of the cap analog m^7G(5′)ppp(5′)G as recommended by the manufacturer (Promega). Xenopus oocytes were injected with 50 nl of approximately 25 ng of transcribed RNA. At 1-2 days, oocytes were voltage clamped at −70 mV, ligands were applied rapidly and directly to the constantly perfused bath and the ligand dependent Cl^− current measured.

## CC(=O)OCC[N+](C)(C)C [acetylcholine]
  response of oocytes to agonist (ligand dependent Cl- current): not
